Test results reported in PubChem BioAssay AID493014 (National Center for Advancing Translational Sciences (NCATS), 2011).
Some of the results follow. The main result of the screen is listed elsewhere. These columns were measured beside it and carry no call. Compounds called inactive in the main read-out are mostly missing here. The note in brackets gives the kind of curve behind each potency; many fits are weak.

Test: qHTS Assay to Find Inhibitors of Chronic Active B-Cell Receptor Signaling
Conditions: ABC-DLBCL IkBa-CBG/CBR reporter, luminescence ratio (green luciferase fused to IkBa over red control in TMD8 lymphoma cells), 4 h
In short: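 TMD8 human ABC-DLBCL cells with doxycycline-inducible IκBα–green luciferase fusion and unfused red luciferase, in 0.5% FBS medium; compounds up to 46 uM, 4 h at 37C. Green/red luminescence ratio, filter-overlap corrected, fitted to concentration-response curves.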

[1] = measured here: CBR red luminescence, cell number
[2] = measured here: IkBa-CBG green luminescence

| Compound | AC50 [1] | AC50 [2] |
| --- | --- | --- |
| O=C(N/N=C/C=C/c1ccc(Br)cc1)C(O)c1ccccc1 (configuration not stated) | 5.17 µM [rising, partial curve, poor fit] | – |
| Cc1ccc(C)c(NS(=O)(=O)c2cc(C(=O)Nc3ccccc3-c3ccccc3)ccc2Cl)c1 | 12.6 µM [falling, single point] | 7.08 µM [rising, full curve, poor fit] |
| COc1ccc(C(CC(=O)c2ccccc2)S(=O)(=O)c2ccc(C)cc2)cc1 (configuration not stated) | 0.355 µM [rising, partial curve, poor fit] | – |
| COc1ccccc1N1CCN(S(=O)(=O)c2ccc3c(c2)n(C)c(=O)n3C)CC1 | 6.31 µM [rising, single point] | – |
| C=CCNC(=S)N1CCc2[nH]c3ccccc3c2C1 | 0.447 µM [rising, full curve, poor fit] | – |
| O=C(c1ccc(F)cc1)c1ccc(-c2ccc(F)cc2)nc1 | 35.5 µM [falling, single point] | 35.5 µM [rising, partial curve, poor fit] |
| O=C(N/N=C\c1ccc2c(c1)OCO2)c1ccco1 | 6.51 µM [falling, partial curve] | – |
| COc1ccc(C(C)(C)C)cc1NC(=O)COC(=O)CSCc1c(C)noc1C | 29.1 µM [rising, partial curve, poor fit] | – |
| CC[C@@H]1C(c2cccc(C)c2)=NN(c2ccccc2)[C@H]1C(=O)N1CCOC1=O | 29.1 µM [rising, partial curve, poor fit] | – |
| COc1ccc(CCn2c(SCCN3CCCCC3)nc3ccccc3c2=O)cc1OC | 2.51 µM [rising, full curve, poor fit] | – |
| CCn1c(CNc2cccc(Cl)c2)nnc1SCC(=O)OC1CCCCC1 | 29.1 µM [falling, single point] | – |
| Cc1ccc(Nc2cc(-n3cccn3)ncn2)c(C)c1 | 0.259 µM [rising, full curve, poor fit] | – |
| Cc1ccc(C2C3=C(CC(C)(C)CC3=O)NC3=C2C(=O)c2ccccc23)cc1 (configuration not stated) | 32.6 µM [falling, partial curve, poor fit] | – |
| CCOc1ccc(-c2nc(N)ncc2-c2ccccc2OC)c(O)c1 | 3.16 µM [rising, single point] | – |
| CCOCCCNC(=O)c1ccc2c(c1)ncn2-c1ccc(CC)cc1 | 3.16 µM [rising, partial curve, poor fit] | – |
| CC12CN(C(=O)c3ccc([N+](=O)[O-])cc3)CC(C)(CN(C(=O)c3ccc([N+](=O)[O-])cc3)C1)C2=O | 25.1 µM [rising, single point] | – |
| CC(C)C(=O)Nc1cccc(C(=O)Nc2ccccc2C(=O)O)c1 | 29.1 µM [falling, single point] | – |
| Cc1cccc(NC(=O)CSCC(=O)Nc2cccc(S(=O)(=O)N3CCCCCC3)c2)c1 | 14.6 µM [falling, single point] | – |
| O=C(NCCC1=CCCCC1)c1cc2c(s1)CS(=O)(=O)C2 | 23.1 µM [rising, partial curve, poor fit] | – |
| N#CC1=C(SCc2ccccc2)NC(=O)CC1c1ccc(O)cc1 (configuration not stated) | 32.6 µM [falling, single point] | – |

| Compound | AC50 [1] | AC50 [2] |
| --- | --- | --- |
| Cc1ccc(CC(=O)Nc2ccc(F)c([N+](=O)[O-])c2)cc1 | 8.2 µM [rising, partial curve, poor fit] | – |
| Cc1ccc(C(=O)NCCc2cccs2)cc1 | 4.47 µM [falling, partial curve] | – |
| CSc1nc(N(C)C)nc(N(C#N)CCOC(C)=O)n1 | 7.94 µM [rising, partial curve, poor fit] | – |
| CN(CC(=O)Nc1ccc(Cl)c(C(F)(F)F)c1)C(=O)CCN1C(=O)C2CCCCC2C1=O (configuration not stated) | 32.6 µM [falling, partial curve, poor fit] | – |
| CC(C)Cc1ccc(CN2CCCC(NC(=O)c3cccc(-n4cnnc4)c3)C2)cc1 (configuration not stated) | 35.5 µM [falling, single point] | – |
| CC(=O)Nc1ccc2sccc2c1 | 14.1 µM [rising, single point] | – |
| CCC(=O)Oc1ccc(C(=O)Nc2cccc(C(=O)NC(C)(C)C)c2)cc1 | 35.5 µM [falling, single point] | – |
| Cc1cc(C)n2ncc(C(=O)Nc3ccc(Cl)c(Cl)c3)c2n1 | 0.794 µM [rising, full curve, poor fit] | – |
| N#C/C(=C/c1cn(CC(=O)O)c2ccccc12)C(=O)NCc1ccccc1 | 28.2 µM [falling, partial curve, poor fit] | – |
| O=C(CSc1nnnn1-c1ccc(F)cc1)NNC(=O)c1ccco1 | 1.41 µM [rising, full curve] | – |
| Cc1cc(C(=O)COc2ccc(Br)cc2F)c(C)n1C1CC1 | 5.17 µM [rising, single point] | – |
| N#Cc1ccc(NC(=O)Nc2ccc(Oc3ccc(NC(=O)Nc4ccc(C#N)cc4)cc3)cc2)cc1 | 11.2 µM [falling, partial curve, poor fit] | – |
| COc1ccc(-c2cc(=O)c3c(OC)c(OC)c(OC)c(OC)c3o2)cc1OC | 0.0259 µM [rising, full curve, poor fit] | – |
| COC(=O)CC1=C(C(=O)OC)C(c2ccncc2)C(C#N)=C(N)O1 (configuration not stated) | 3.26 µM [falling, partial curve, poor fit] | – |
| COc1cc(C(=O)NC2CCN(Cc3nnnn3Cc3ccc(F)cc3)CC2)cc(OC)c1OC | 6.31 µM [rising, full curve, poor fit] | 11.2 µM [falling, partial curve] |
| CC(OC(=O)c1ccccc1Br)C(=O)Nc1nc(-c2cccc([N+](=O)[O-])c2)cs1 (configuration not stated) | 23.1 µM [rising, partial curve, poor fit] | – |
| O=C(COc1ccc(Br)cc1Cl)NC1CCCCC1 | 0.731 µM [rising, full curve] | – |
| Nc1nonc1-n1nnc(C(=O)N/N=C/c2ccccc2)c1CN1CCc2ccccc21 | 28.2 µM [rising, single point] | – |
| O=c1cc(N2CCOCC2)c2ccccc2o1 | 0.92 µM [falling, full curve, poor fit] | – |

Rewritten with bars between the fields: part of the list above
Compound | AC50 [1] | AC50 [2]
Cc1cc(C(=O)COc2ccc(Br)cc2F)c(C)n1C1CC1 | 5.17 µM [rising, single point] | –
N#Cc1ccc(NC(=O)Nc2ccc(Oc3ccc(NC(=O)Nc4ccc(C#N)cc4)cc3)cc2)cc1 | 11.2 µM [falling, partial curve, poor fit] | –
